# PubChem BioAssay AID504764 – Drosophila RNAi Screening Center | 2011
# Screen: 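Genes whose knock-down alters Notch-dependent transcription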 (primary screen)
# Cells: Drosophila Kc167 cells
# Knock-down reagent: long dsRNA against Drosophila genes
# Duration: about 5 days (4 days dsRNA, then 24 h after transfection)
# Treatment: transfection of constitutively active membrane-tethered Notch lacking the extracellular domain, read 24 h later
# Read-out: 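Light from a Notch-responsive E(spl)m3 luciferase reporter under active Notch, with control-promoter and no-Notch reporter wells to normalise; raw counts from paired wells a and b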
# Reading the numbers: induced reporter light, run 1, well a and induced reporter light, run 1, well b: higher = more light from the Notch target reporter with active Notch; control promoter light, run 1, well a and control promoter light, run 1, well b: higher = more light from the viral control promoter (cell number, transfection, viability); uninduced reporter light, run 1, well a: higher = more light from the Notch target reporter without active Notch
# Rule for the call: 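Hit if the duplicate-averaged log2 ratio of induced to control-promoter light gives a plate-wise z beyond ±2, or induced to uninduced beyond ±1.8; weak-control or discordant-duplicate wells dropped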
# Calls: active = modifier hit (raised or lowered Notch signal); inactive = not a hit
# The deposit covers about 22,000 reagents; this is a random part of those with a known target gene and a result. Of all reagents, 403 (1.9%) were called active. 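Unnormalised raw counts per well; ratio z-scores behind the hit calls and whether each hit raises or lowers signal are not deposited.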 The numbers tell different reagents against one gene apart. A plus sign joins genes that one reagent is predicted to hit. Not given: the amount of reagent.
gene,reagent,"induced reporter light, run 1, well a","induced reporter light, run 1, well b","control promoter light, run 1, well a","control promoter light, run 1, well b","uninduced reporter light, run 1, well a",call
tor,1,1.96e5,1.50e5,2.12e5,1.70e5,15050,inactive
ninaD,1,1.42e5,1.46e5,1.57e5,1.53e5,13250,inactive
128up,1,1.62e5,1.80e5,1.64e5,1.69e5,14895,inactive
CG34393,1,1.47e5,1.60e5,1.38e5,1.36e5,10695,inactive
CG34393,2,1.75e5,1.52e5,1.78e5,1.67e5,9500,inactive
wdp,1,1.81e5,1.91e5,1.46e5,1.54e5,15730,inactive
CG15570,1,1.20e5,1.22e5,2.38e5,1.90e5,9635,inactive
mRNA-cap,1,62620,58135,72535,55995,11460,inactive
Obp56i,1,1.67e5,1.66e5,3.00e5,3.20e5,13275,inactive
CG17219,1,1.96e5,1.85e5,2.79e5,2.46e5,12390,inactive
CG42245 + MEP-1,1,2.08e5,1.74e5,2.06e5,1.62e5,16850,inactive
CG42245 + MEP-1,2,1.06e5,92700,1.60e5,1.55e5,8320,inactive
Cyt-c-d,1,1.21e5,1.28e5,1.38e5,1.64e5,9710,inactive
Vps4,1,77570,64335,56870,34100,5005,inactive
CG7668,1,1.06e5,1.40e5,73740,73145,7615,inactive
Dap160,1,1.22e5,1.28e5,83645,98025,9115,inactive
CG3216,1,34135,29250,25635,23075,2340,inactive
Yp1,1,1.28e5,1.55e5,3.11e5,2.80e5,9995,inactive
AGO2,1,1.38e5,1.84e5,2.25e5,1.83e5,12360,inactive
AGO2,2,1.19e5,1.27e5,87460,1.09e5,12225,inactive
OtopLc,1,1.38e5,1.16e5,2.10e5,2.01e5,10260,inactive
OtopLc,2,93365,1.06e5,1.43e5,1.68e5,8515,inactive
OtopLc,3,1.72e5,1.41e5,2.93e5,2.76e5,10230,inactive
CG6409,1,99950,87375,84240,29835,9965,inactive
CG7548,1,1.85e5,2.00e5,1.97e5,1.84e5,10115,inactive
CG10019,1,22265,22478,14765,12390,2850,inactive
Vps20,1,1.95e5,1.64e5,1.47e5,1.72e5,13578,inactive
Ras85D,1,92535,90545,94230,63430,4510,inactive
Rcd5,1,1.78e5,1.45e5,1.11e5,34265,13600,inactive
CG13921,1,90690,1.06e5,1.69e5,1.91e5,8540,inactive
mop,1,1.15e5,1.16e5,90090,1.12e5,10182,inactive
sol,1,90310,75520,92565,1.24e5,8615,inactive
CG16723,1,1.98e5,1.87e5,2.31e5,1.96e5,14050,inactive
Rassf,1,1.51e5,1.61e5,2.13e5,2.10e5,14230,inactive
rho-4,1,1.89e5,1.61e5,1.97e5,1.96e5,13845,inactive
rho-4,2,97280,1.02e5,1.57e5,1.38e5,7355,inactive
Cyp309a1,1,1.08e5,92180,94115,75885,8865,inactive
CG15336,1,1.39e5,1.49e5,2.02e5,1.98e5,10545,inactive
CG14545,1,1.56e5,1.40e5,2.00e5,1.69e5,11895,inactive
CG7639,1,69210,84580,1.13e5,1.03e5,8100,inactive
inaF-B,1,88465,70035,76600,60425,5085,inactive
Pex5,1,99015,1.18e5,1.87e5,2.04e5,9160,inactive
Cyfip,1,96600,76150,78965,83955,5405,inactive
Hr3,1,16955,16225,25160,24100,4630,inactive
Hr3,2,2.04e5,1.99e5,1.43e5,1.51e5,14805,inactive
SmydA-8,1,95105,1.13e5,1.98e5,1.49e5,8460,inactive
SmydA-8,2,,,,,,inactive
Taf8,1,69305,60260,61670,52405,7920,inactive
bol,1,1.96e5,1.94e5,2.10e5,1.80e5,12635,inactive
bol,2,2.04e5,2.59e5,2.99e5,2.44e5,11080,inactive
bol,3,1.39e5,1.45e5,2.21e5,1.80e5,12885,inactive

In a second layout: entries from further up
gene | reagent | induced reporter light, run 1, well a | induced reporter light, run 1, well b | control promoter light, run 1, well a | control promoter light, run 1, well b | uninduced reporter light, run 1, well a | call
inaF-B | 1 | 88465 | 70035 | 76600 | 60425 | 5085 | inactive
Pex5 | 1 | 99015 | 1.18e5 | 1.87e5 | 2.04e5 | 9160 | inactive
Cyfip | 1 | 96600 | 76150 | 78965 | 83955 | 5405 | inactive
Hr3 | 1 | 16955 | 16225 | 25160 | 24100 | 4630 | inactive
